{
  "source": "patent US20090075291A1",
  "about": "“PEPTIDE-BASED REGULATION OF GAP JUNCTIONS” (The Research Foundation of State University of New York, priority 2006, published 2009)",
  "binders": {"B1": {"name": "RXP4 (peptide)", "peptide": "RRPPYRVPPKLF"}, "B2": {"name": "GST-RXPE (glutathione S-transferase fused to RXPE) (peptide, not shown: a dimerising Fc or GST)", "chain": "SDDLRSPQLHNGGGSAVPFYSHSHMVRRKPRNPR"}, "B3": {"name": "GST-NL.RXPE (glutathione S-transferase fused to NL.RXPE) (peptide, not shown: a dimerising Fc or GST)", "chain": "SDDLRSPQLHNHMVRRKPRNPR"}, "B4": {"name": "RXP-E (peptide)", "peptide": "B2 chain"}, "B5": {"name": "25 (peptide)", "peptide": "B2 chain with R28A, P30A"}, "B6": {"name": "27 (peptide)", "peptide": "B2 chain with P30A, R31A"}},
  "key": {"[1]": {"target": "Recombinant Cx43CT (carboxyl terminal domain of rat connexin43, residues 255-382, preceded by GPLG) (rat) (UniProt P08050)", "experiment": "SPR sensorgram, peptide 250 µM"}, "[2]": {"target": "Recombinant Cx43CT (carboxyl terminal domain of rat connexin43, residues 255-382, preceded by GPLG) (rat) (UniProt P08050)", "experiment": "SPR, Cx43CT immobilized, peptide 250 µM and higher"}, "[3]": {"target": "Recombinant Cx43CT (carboxyl terminal domain of rat connexin43, residues 255-382, preceded by GPLG) (rat) (UniProt P08050)", "experiment": "SPR, Cx43CT immobilised, peptide 250 µM, pH 7.5 printed on the sheet"}, "[4]": {"target": "Cx43 from rat heart lysate (rat) (UniProt P08050)", "experiment": "GST pulldown from rat heart lysate, western blot for Cx43"}, "[5]": {"target": "Cx43 from rat heart lysate (rat) (UniProt P08050)", "experiment": "GST pulldown from rat heart lysate on glutathione beads, western blot with anti-Cx43 antibody"}, "[6]": {"target": "Cx43 from rat heart lysate (rat) (UniProt P08050)", "experiment": "Cx43 pulldown assay, percent binding relative to RXPE; Example 19 does not state the source of Cx43"}},
  "note": "Positions count from the first letter of the chain named. No constants are given. Whether binding was seen depends on the method and setting. For some assays here: Binding seen in cells or lysates may run through a third protein. Some entries that bind do so weakly or less than the wild type. For some assays here: Tags and fused reporters may be left off the sequences shown.",
  "data": [
    {"binder": "B1", "values": [
      {"measurement": "binding", "setting": "[1]", "value": "binds"},
      {"measurement": "binding", "setting": "[2]", "value": "binds"},
      {"measurement": "binding", "setting": "[3]", "value": "binds"}
    ]},
    {"binder": "B2", "values": [
      {"measurement": "binding", "setting": "[4]", "value": "binds"},
      {"measurement": "binding", "setting": "[5]", "value": "binds"}
    ]},
    {"binder": "B3", "values": [
      {"measurement": "binding", "setting": "[6]", "value": "binds"},
      {"measurement": "binding", "setting": "[4]", "value": "binds"},
      {"measurement": "binding", "setting": "[5]", "value": "binds"}
    ]},
    {"binder": "B4", "values": [
      {"measurement": "binding", "setting": "[6]", "value": "binds"}
    ]},
    {"binder": "B5", "values": [
      {"measurement": "binding", "setting": "[6]", "value": "binds"}
    ]},
    {"binder": "B6", "values": [
      {"measurement": "binding", "setting": "[6]", "value": "binds"}
    ]}
  ]
}
